Experimental data reported in PubChem BioAssay AID493014 (National Center for Advancing Translational Sciences (NCATS), 2011).
The whole screen tested about 340,000 compounds, of which about 170 (0.05%) were called active. The shares of active, inactive and inconclusive entries below differ from those in the screen. Calls come from the whole dose curve; as a rule, active = well fitted inhibition curve with a large enough effect in the signal ratio, with a control signal flat (not every such curve was filed as active); inconclusive = small, poorly fitted or top-dose-only effect, or effect the other way, or a change in a side signal; inactive = flat fitted curve, though single readings scatter; the % refers to the signal ratio. Where the call is inconclusive, the potency comes from a doubtful curve fit.

experiment: qHTS Assay to Find Inhibitors of Chronic Active B-Cell Receptor Signaling; details: ABC-DLBCL IkBa-CBG/CBR reporter, luminescence ratio (green luciferase fused to IkBa over red control in TMD8 lymphoma cells), 4 h; activity change, negative = inhibition: at 46.1 µM (top of the series);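 for activity change, negative = inhibition: plate controls were basal doxycycline-induced cells for no effect and cells given 10 µM MG132 for full effect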
Summary of the method: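 Concentration-response series (up to 46 uM) were applied to TMD8 dual-reporter cells for 4 h at 37C with doxycycline. Green/red ratio, after filter-overlap correction, defined %Activity; red signal alone was normalised to basal cells and zero luminescence.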
Potency is the fitted concentration of half-maximal effect.

Compound | Potency | activity change, negative = inhibition
O=C(c1ccc(S(=O)(=O)c2ccccc2Cl)c([N+](=O)[O-])c1)N1CCN(Cc2ccccc2)CC1 | inconclusive: 23.1 µM [falling, single point] | –
O=C(COc1ccccc1)Nc1cccc(S(=O)(=O)N2CCCC2)c1 | – | inconclusive: -7.34%
Cc1cc2ncn(C(=O)c3c(-c4c(Cl)cccc4Cl)noc3C)c2cc1C | – | inconclusive: 2.6%
O=C(CCC(=O)Nc1nnc(C2CCCCC2)s1)NCc1ccccc1 | – | inconclusive: 4.32%
C/C(=N\NC(=O)CN1CCN(Cc2ccccc2)CC1)c1ccncc1 | – | inconclusive: -0.504%
CS(=O)(=O)n1nc(OC(=O)c2cccc3ccccc23)cc1N | – | inconclusive: 14.7%
O=c1[nH][nH]cc1C=Nc1ccccc1O | – | inactive: -10.1%
O=C(Nc1cc(Cl)ccc1O)C1CC(c2ccccc2Cl)=NO1 (stereo unspecified) | – | inconclusive: 5.02%
COc1ccc(OC)c(NC(=O)c2ccc(OC3CSC3)cc2)c1 | – | inactive: -17.5%
CCC1(c2ccccc2)NC(=O)N(CC(=O)Nc2ccc(Cl)c(S(=O)(=O)N3CCCCC3)c2)C1=O (stereo unspecified) | inconclusive: 16.4 µM [rising, partial curve] | –
CCOc1cc(NS(C)(=O)=O)c(OCC)cc1NC(=O)c1cccs1 | – | inactive: 1.23%
Cc1nn(-c2ccccc2)c2[nH]c(=O)c(CNCc3ccc4c(c3)OCO4)cc12 | – | inconclusive: -19.5%
CCOc1cc(N2CCOCC2)c(OCC)cc1NC(=O)c1ccc(OC)c(S(=O)(=O)N2CCOCC2)c1 | – | inconclusive: -9.34%
c1ccc(Cn2c(NCc3ccco3)nc3ccccc32)cc1 | – | inactive: 18.8%
COc1cccc(C(=O)Nc2ccc3c(cc2=O)[C@@H](NC(C)=O)CCc2cc(OC)c(OC)c(OC)c2-3)c1 | inconclusive: 15.8 µM [falling, partial curve] | –
CC1C=CCC2C(=O)N(c3cccc(C(=O)NCc4ccccc4)c3)C(=O)C12 (stereo unspecified) | – | inactive: 2.01%
COc1ccc(/C=C2/SC(=S)N(c3ccc(S(=O)(=O)Nc4nccs4)cc3)C2=O)cc1 | – | inconclusive: -9.13%
CCOC(=O)N1CCN(C(=O)c2ccc(Cl)c(S(=O)(=O)Nc3ccccc3)c2)CC1 | – | inconclusive: -15.7%
CCOC(=O)c1sc(=S)n(-c2ccc(OC)cc2)c1N | inconclusive: 35.5 µM [falling, partial curve, poor fit] | –
Cc1ccnc(NC(=O)c2cccc(NC(=O)Cc3ccccc3)c2)c1 | inconclusive: 2.51 µM [falling, full curve, poor fit] | –
Cc1nc2ccccc2c(=O)n1NC(=O)c1ccccc1 | – | inconclusive: -4.07%

Two entries picked at random from those above:
Compound | Potency | activity change, negative = inhibition
O=C(COc1ccccc1)Nc1cccc(S(=O)(=O)N2CCCC2)c1 | – | inconclusive: -7.34%
CCOc1cc(NS(C)(=O)=O)c(OCC)cc1NC(=O)c1cccs1 | – | inactive: 1.23%
